Measured values from PubChem BioAssay AID2718 (Broad Institute, 2010).
“And” between values parts separate entries of the source, which are not always exact repeats. Equal entries are not always repeated. Screen size: about 320,000 compounds; about 480 (0.15%) were called active. The shares of active, inactive and inconclusive entries below differ from those in the screen. No stated cut-off is given here; in the data, active means inhibition above about 26% (passing the limit was not always enough); inconclusive means no clear call, values can overlap the other calls.

Chains of the proteins cited; added tags and fusions are not shown.
UniProt O15379, whole entry, looked up: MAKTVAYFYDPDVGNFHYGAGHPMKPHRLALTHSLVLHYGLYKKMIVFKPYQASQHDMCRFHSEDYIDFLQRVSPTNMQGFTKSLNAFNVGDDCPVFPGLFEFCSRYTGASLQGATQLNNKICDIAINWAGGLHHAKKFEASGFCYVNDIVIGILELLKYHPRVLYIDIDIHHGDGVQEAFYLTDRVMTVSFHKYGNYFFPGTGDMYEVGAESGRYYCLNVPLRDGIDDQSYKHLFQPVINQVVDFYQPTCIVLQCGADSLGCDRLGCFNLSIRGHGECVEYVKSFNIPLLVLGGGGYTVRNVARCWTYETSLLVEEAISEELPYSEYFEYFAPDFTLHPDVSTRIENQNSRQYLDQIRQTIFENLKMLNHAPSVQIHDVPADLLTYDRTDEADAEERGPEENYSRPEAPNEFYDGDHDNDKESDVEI

Target: Histone deacetylase 3 (Homo sapiens) (UniProt O15379)
Assay: HDAC3 deacetylase inhibitors, primary screen, biochemical, fluorescence, cell-free homogeneous (AID 2718)
Settings: recombinant HDAC3, fluorogenic peptide/trypsin coupled, at 8.3 µM, stronger effect = higher value

Structure (SMILES) | inhibition
CC(C)C[C@@H](N)c1nnc(SCC(=O)c2ccc(Cl)cc2)o1 | inconclusive: 31%
Cc1cc(C)nc(SCc2nnc(SCC(N)=O)o2)n1 | inactive: 0.124%
COc1ccc(N(CC(=O)N/N=C/c2ccc(N(C)C)cc2)S(=O)(=O)c2ccccc2)cc1 | inactive: 4.32%
O=C(N/N=C/c1ccc(Cl)cc1)C(=O)N1CCCCCC1 | inconclusive: 19.6%
COc1ccccc1CNC(=O)CCn1c(=O)[nH]c2ccsc2c1=O | inconclusive: 26.1%
CC(C)NC(=O)C1CCN(C(=O)N(C)C)CC1 | inconclusive: 13.9%
COc1ccc(C(=O)c2ccc([N+](=O)[O-])cc2Cl)cc1 | inconclusive: 16.8%
Cc1ccc2oc(=O)n(Cc3ccccc3)c2c1 | inactive: 4.56%
O=C(NC1CCCCC1)C1c2ccccc2C(=O)N1Cc1ccco1 (stereo unspecified) | inconclusive: 17.3%
C=C(C)c1cccc(C(C)(C)NC(=O)Nc2cc(C)ccc2OC)c1 | inconclusive: 17.7%
Cc1cc(NC(=O)COc2ccccc2C#N)no1 | inconclusive: 18.1%
O=C(/C=C/c1cccs1)NC(=S)Nc1ccccc1 | inactive: 7.71%
CCOC(=O)CN(C(=O)CN1CCOCC1)c1ccc(Br)cc1 | inconclusive: 24.6%
CC(=O)COc1coc(CN2CCN(c3ccc(F)cc3)CC2)cc1=O | inactive: -9.08%
Cc1ccc(C(=O)c2c(NC(=O)c3ccncc3)sc3c2CCCC3)cc1 | inconclusive: 12.3%
O=c1cnc2ccccc2n1Cc1ccccc1C(F)(F)F | inactive: 1.26%
O=C(NCC1CCCN1S(=O)(=O)c1cccs1)C(=O)Nc1ccc(F)cc1 (stereo unspecified) | inactive: -5.71%
C=C1C(=O)O[C@H]2C[C@]3(C)C([C@@H](OC(=O)/C(C)=C/C)[C@H]12)[C@](C)(O)CC[C@H]3O (stereo partly specified) | inconclusive: 12.3%
O=C(CSc1nnnn1-c1ccccc1)N1CCN(C(=O)c2ccco2)CC1 | inconclusive: 24.1%
COc1cccc(C=O)c1OCCCOc1cccc2cccnc12 | inactive: 0.587%
CCc1nn2c(N3CCOCC3)cc(C)nc2c1-c1ccc(F)cc1 | inconclusive: 17.5%
CC(=O)NN1C(=O)/C(=C\c2ccc(Br)o2)SC1=S | inconclusive: 25.7%

Structure (SMILES) | inhibition
COc1ccc(C(CNC(=O)c2cc(S(=O)(=O)N3CCN(c4ccccc4)CC3)ccc2Cl)N(C)C)cc1 (stereo unspecified) | inconclusive: 16.8%
COc1ccc(/C=N/OCC(=O)OCC(=O)N(C)c2ccccc2)cc1 | inconclusive: 23.3%
O=C(Nc1ccnn1C1CCN(C2CCCC2)CC1)c1ccccc1Cl | inactive: 1.37%
COc1ccc(N2CCN(C(=S)Nc3ccc(C)cc3)CC2)cc1 | inconclusive: 16.4%
CN(CC(=O)Nc1cccc(F)c1)C(=O)/C=C/c1ccc2ccccc2n1 | inactive: -9.96%
O=C(COC(=O)c1ccccc1SCC(=O)N1CCCC1)NC1CCCCC1 | inconclusive: 23%
CCCCNC(=O)C1CC(=O)N(CCc2ccccc2)C1 (stereo unspecified) | inactive: 3.06%
CCCC(=O)NCC(c1cccs1)S(=O)(=O)c1ccc(C)cc1 (stereo unspecified) | inconclusive: 11.9%
COc1ccccc1C(=O)COC(=O)CN1C(=O)C2CC=CCC2C1=O (stereo unspecified) | inactive: 0.252%
COc1ccccc1Nc1nc(-c2cccs2)cs1 | inactive: 0.161%
c1csc(-c2nc3c4ccccc4c4ccccc4c3[nH]2)c1 | inactive: -14.1%
COc1cccc(NC(=O)c2cnsn2)c1 | inconclusive: 7.25%
CCC1Oc2ccccc2N(CC(=O)NCCCN2CCN(CC)CC2)C1=O (stereo unspecified) | inconclusive: 12.7%
CN(C(=O)CSc1nc2ccc(Br)cc2c(=O)n1Cc1ccco1)C1CCS(=O)(=O)C1 (stereo unspecified) | inconclusive: 20.2%
Cc1ccc(-n2sc3ccccc3c2=O)cc1S(=O)(=O)N1CCCCC1 | active: 39.4%
Cc1ccc(NC(=O)C2CCCN(S(=O)(=O)c3cnc[nH]3)C2)cc1C (stereo unspecified) | inactive: 2.62%
COC(=O)C1CCCN1S(=O)(=O)c1ccccc1NC(=O)c1cc(OC)c(OC)c(OC)c1 (stereo unspecified) | inactive: -12%
O=C(NNC1CC(=O)N(c2ccccc2)C1=O)c1ccco1 (stereo unspecified) | inconclusive: 17.8%
COc1ccc(N(C(=O)c2cnccn2)C(C(=O)NC2CCCCC2)c2ccc(Cl)cc2)cc1 (stereo unspecified) | inactive: 8.04%
Nc1nc(=S)c2[nH]cnc2[nH]1 | inconclusive: 15.2%
COc1ccc([C@H]2/C=C\CN(S(=O)(=O)c3ccc4ccccc4c3)[C@@H](C)C(=O)N2Cc2ccc(F)cc2)cc1 | inconclusive: 17.1%
CCc1cccc(NC(=O)CSC2=NS(=O)(=O)c3ccccc32)c1 | active: 36.3%

A run of entries taken from the entries so far, for reference:
Structure (SMILES) | inhibition
CCc1nn2c(N3CCOCC3)cc(C)nc2c1-c1ccc(F)cc1 | inconclusive: 17.5%
CC(=O)NN1C(=O)/C(=C\c2ccc(Br)o2)SC1=S | inconclusive: 25.7%
COc1ccc(C(CNC(=O)c2cc(S(=O)(=O)N3CCN(c4ccccc4)CC3)ccc2Cl)N(C)C)cc1 (stereo unspecified) | inconclusive: 16.8%
COc1ccc(/C=N/OCC(=O)OCC(=O)N(C)c2ccccc2)cc1 | inconclusive: 23.3%
O=C(Nc1ccnn1C1CCN(C2CCCC2)CC1)c1ccccc1Cl | inactive: 1.37%
COc1ccc(N2CCN(C(=S)Nc3ccc(C)cc3)CC2)cc1 | inconclusive: 16.4%
CN(CC(=O)Nc1cccc(F)c1)C(=O)/C=C/c1ccc2ccccc2n1 | inactive: -9.96%
O=C(COC(=O)c1ccccc1SCC(=O)N1CCCC1)NC1CCCCC1 | inconclusive: 23%
CCCCNC(=O)C1CC(=O)N(CCc2ccccc2)C1 (stereo unspecified) | inactive: 3.06%
CCCC(=O)NCC(c1cccs1)S(=O)(=O)c1ccc(C)cc1 (stereo unspecified) | inconclusive: 11.9%
COc1ccccc1C(=O)COC(=O)CN1C(=O)C2CC=CCC2C1=O (stereo unspecified) | inactive: 0.252%
COc1ccccc1Nc1nc(-c2cccs2)cs1 | inactive: 0.161%
c1csc(-c2nc3c4ccccc4c4ccccc4c3[nH]2)c1 | inactive: -14.1%
COc1cccc(NC(=O)c2cnsn2)c1 | inconclusive: 7.25%
CCC1Oc2ccccc2N(CC(=O)NCCCN2CCN(CC)CC2)C1=O (stereo unspecified) | inconclusive: 12.7%
CN(C(=O)CSc1nc2ccc(Br)cc2c(=O)n1Cc1ccco1)C1CCS(=O)(=O)C1 (stereo unspecified) | inconclusive: 20.2%
Cc1ccc(-n2sc3ccccc3c2=O)cc1S(=O)(=O)N1CCCCC1 | active: 39.4%
Cc1ccc(NC(=O)C2CCCN(S(=O)(=O)c3cnc[nH]3)C2)cc1C (stereo unspecified) | inactive: 2.62%
COC(=O)C1CCCN1S(=O)(=O)c1ccccc1NC(=O)c1cc(OC)c(OC)c(OC)c1 (stereo unspecified) | inactive: -12%
O=C(NNC1CC(=O)N(c2ccccc2)C1=O)c1ccco1 (stereo unspecified) | inconclusive: 17.8%
COc1ccc(N(C(=O)c2cnccn2)C(C(=O)NC2CCCCC2)c2ccc(Cl)cc2)cc1 (stereo unspecified) | inactive: 8.04%
Nc1nc(=S)c2[nH]cnc2[nH]1 | inconclusive: 15.2%

More results follow:

Structure (SMILES) | inhibition
COc1cc(OC)c2ccc(=O)oc2c1C(CCN1CCCC(C)C1)c1ccc2c(c1)OCO2 (stereo unspecified) | inconclusive: 14.8%
CCCc1ccc2oc(C(=O)N(C)CCn3ccnc3C)c(C)c2c1 | inconclusive: 19.4%
COc1ccc(-c2nc(CSCC(=O)NCc3ccc4c(c3)OCO4)c(C)o2)cc1 | inconclusive: 12%
C=CC[C@@H]1C=C(C)C[C@H](C)C[C@H](OC)[C@H]2O[C@@](O)(C(=O)C(=O)N3CCCC[C@H]3C(=O)O[C@H](/C(C)=C/[C@@H]3CC[C@@H](O)[C@H](OC)C3)[C@H](C)[C@@H](O)CC1=O)[C@H](C)C[C@@H]2OC | inconclusive: 25.6%
CC(=O)n1nc(-c2cccnc2)nc1NCc1cccs1 | inconclusive: 26.5%
Clc1ccc(-c2[nH]ncc2N=Nc2ccccc2)cc1 | inconclusive: 25.7%
COc1cc(/C=N/Nc2ncc(C(F)(F)F)cc2Cl)cc(OC)c1O | inactive: 8.59%
C[n+]1c2n(c3ccccc31)N=C(c1ccccc1)CS2 | active: 33.9% and active: 31.2%
COc1ccc(C(=O)N/C(=C\c2ccco2)C(=O)NCCCn2ccnc2)cc1 | inconclusive: 24.4%
O=C(Nc1ccc2c(c1)S(=O)(=O)N=C1CCCCCN12)c1ccccc1Cl | inactive: 5.12%
CC(Oc1cccc(Cl)c1)C(=O)N(C)CC(=O)Nc1ccc(N2CCOCC2)cc1 (stereo unspecified) | inconclusive: 16.9%
CCCOC(=O)c1ccc(Oc2c(-c3ccc(OC)cc3O)n[nH]c2C)cc1 | inconclusive: 9.59%
COc1cccc(N(C(=O)c2snc(C(N)=O)c2N)C(C(=O)NCC2CCCO2)c2ccc(F)cc2)c1 (stereo unspecified) | inactive: 1%
CC(=O)N1c2ccc(S(=O)(=O)N3CCCC3)cc2CC1C(=O)NCc1ccc(OC(C)C)cc1 (stereo unspecified) | inconclusive: 18%
COc1ccc(-c2cc(C(=O)Nc3cnn(Cc4ccccc4C)c3)no2)cc1OC | inactive: 6.25%
O=C1CN(C(=O)CCCc2c[nH]c3ccccc23)c2ccccc2N1 | inconclusive: 14.9%
O=C(COC(=O)CCC(=O)c1ccc(F)cc1)NCc1ccco1 | inconclusive: 16.3%
CCC(=O)NC(NC(=S)Nc1ccccc1Br)C(Cl)(Cl)Cl (stereo unspecified) | inconclusive: 14.7%
COc1cccc(Cn2c(Oc3cccc(C)c3)nc3c2c(=O)n(C)c(=O)n3C)c1 | inconclusive: 14.9%
CCn1nnc(-c2ccccc2NC(=O)C(F)(F)F)n1 | inconclusive: 10.9%
O=[N+]([O-])c1ccccc1C1Nc2cccc3cccc(c23)N1 | inactive: -15.4%
Cc1cccc(NC(=O)NNC(=O)c2cc(-c3ccccc3Cl)nc3ccccc23)c1 | inconclusive: 17.7%

Structure (SMILES) | inhibition
CCN(CC)CCN(C(=O)c1ccc2ccccc2c1)c1nc2cc3c(cc2s1)OCO3 | inconclusive: 14.8%
CC(=O)c1c(C)nn(C(=O)c2cccs2)c1C | active: 40.9%
O=C(NCCNS(=O)(=O)c1ccccc1)c1cc(OCC(F)(F)F)ccc1OCC(F)(F)F | inactive: -0.888%
COc1ccc(NS(=O)(=O)c2cc(NC(=O)c3ccc(C)s3)ccc2N2CCOCC2)cc1 | inconclusive: 15.7%
CCNC(=S)N/N=C/c1ccc(C#N)cc1 | inconclusive: 16.3%
O=C(CSc1ccccn1)N/N=C/C=C/c1ccccc1 | inconclusive: 11.3%
CC(=O)c1cccc(NC(=O)COC(=O)c2cccs2)c1 | inactive: -4.1%
CCN(CC)S(=O)(=O)c1ccc(N2CCOCC2)c(NS(=O)(=O)c2cc(C(C)(C)C)ccc2C)c1 | inconclusive: 25.3%
Cc1cc(C(=O)N/N=C/c2ccc(N(C)C)cc2)c2ccccc2n1 | inconclusive: 14.7%
O=S(=O)(c1ccc(F)c(F)c1)N1CCN(CCc2ccccc2)CC1 | inactive: -1.92%
O=C(/C=C\c1ccco1)Nc1ccc(N2CCN(C(=O)c3ccccc3)CC2)cc1 | inconclusive: 24.1%
CCCn1c(-c2ccc(OC)cc2)nc2ccccc21 | inconclusive: 14.2%
O=C(c1ccc(Cl)cc1)[C@@H]1[C@@H]2C(=O)N(c3ccc(Cl)cc3)C(=O)[C@@H]2C2c3ccccc3C=NN21 (stereo partly specified) | inactive: -0.291%
COC(=O)c1ccc2c(=O)n(NC(C)=O)c(=S)[nH]c2c1 | inconclusive: 14.4%
C=CC[C@H](CC(=O)N(CCO)Cc1ccccc1)C(=O)NC[C@H](OC(=O)[C@@H](CC=C)Cc1ccc(F)cc1)c1ccccc1 | active: 28.5%
CCOc1cccc(-c2c(C(=O)N/N=C/c3ccc(C)o3)nnn2-c2nonc2N)c1 | inconclusive: 23.7%
CCCCN(CCCC)S(=O)(=O)c1ccc2oc(C(=O)N3CCOCC3)c(C)c2c1 | inconclusive: 15.8%
O=C(CCC(=O)N1CCN(c2ccc(C(F)(F)F)cn2)CC1)c1cccs1 | inactive: 4.74%
CCOC(=O)/C(C#N)=C/C=C1\C=Cc2ccccc2N1CC | inconclusive: 19.4%
CCOC(=O)c1ccc(NCc2nc3ccccc3n2C)cc1 | inactive: -9.22%
